Experimental data from PubChem BioAssay AID2685 (National Center for Advancing Translational Sciences (NCATS), 2010).
Values joined by “and” are separate entries in the source; they are usually repeats but may differ in a detail not shown here. Equal entries are not always repeated. Some of the results follow. The main result of the screen is listed elsewhere. These columns were measured beside it and carry no call. The list favours compounds with an active or inconclusive main result. Potencies come from curve fits of mixed quality, noted in brackets.

Experiment: qHTS Assay for Lipid Storage Modulators in Drosophila S3 Cells;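 for cell number change: cells counted by Cell Tracker Red CMTPX staining in the red channel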
Conditions: BODIPY lipid droplet fluorescence, 18-24 h; for cell number change: measured here: cell count max response, cells fed with added oleic acid
Procedure, shortened: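 Drosophila S3 cells got compounds at several concentrations plus oleic acid (400 uM solution). Laser-scanning cytometry with 488 nm excitation read lipid droplets at 500-530 nm and cells at 575-640 nm. Percent activity was relative to 20 uM Triacsin C.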

[1] = measured here: lipid fluorescence (Fed channel) AC50, cells fed with added oleic acid
[2] = measured here: cell number channel AC50, cells fed with added oleic acid

Compound | cell number change | AC50 [1] | AC50 [2]
Cc1ccc2nc(C)cc(C(=O)N/N=C/c3ccncc3)c2c1 | 15.8% | 0.794 µM [rising, full curve, poor fit] | 
O=C(CCc1ccccc1)NCc1ccc2c(c1)OCO2 | 9.89% | 13 µM [rising, partial curve] | 
COc1ccc(N2CCN(C(=O)CN(C3CCCCC3)S(C)(=O)=O)CC2)cc1 | -29.3% | 1.3 µM [falling, full curve] | 
CCN(c1ccccc1)S(=O)(=O)c1ccc(Cl)c(NC(=O)Nc2ccc(Cl)cc2C#N)c1 | 19.9% | 4.11 µM [rising, single point] | 
CS(=O)(=O)Nc1cccc(C2=NN(C(=O)c3ccccc3)C(c3cccs3)C2)c1 (centres undefined) | -18.1% |  | 
Cc1occc1C(=O)NC1CCCCCCC1 | 21.2% | 2.91 µM [rising, single point] | 
C=CCSc1nnc(-c2ccccc2NC(=O)CC)c(=O)[nH]1 | -8.89% | 4.11 µM [falling, full curve] | 
C=CCc1cccc(CNc2cnc3ccccc3c2)c1O | -46.4% |  | 20.6 µM [falling, single point]
Cc1ccc(SCc2ccc(C(=O)Nc3cccnc3)cc2)cc1 | 16.7% |  | 
CCN(CC)C(=O)c1[nH]cnc1C(=O)N[C@H](C)c1ccccc1 | -12.2% | 2.06 µM [falling, single point] | 
Brc1ccc(-c2csc(N/N=C/c3ccco3)n2)cc1 | 24.1% |  | 
CCC(C)C(=O)Nn1c(C2CC2)nc2cc(OC)c(OC)cc2c1=O (centres undefined) | 32.1% | 16.4 µM [rising, single point] | 
CCN1CCN(C(=O)CSc2ccc(C)cc2)CC1 | -2.47% | 29.1 µM [rising, single point] | 
O=C(NCCN1CCN(C(=O)C(c2ccccc2)c2ccccc2)CC1)C(=O)Nc1ccccc1 | 169% | 18.4 µM [rising, partial curve] | 
COc1cc(C2CC(c3cccnc3)=NN2c2ccc(F)cc2)cc(OC)c1OC (centres undefined) | 44.4% | 29.1 µM [rising, single point] | 29.1 µM [rising, single point]
CC(CNC(=O)CN1C(=O)c2cccnc2Oc2ccc(Cl)cc21)c1ccccc1 (centres undefined) |  | 23.1 µM [falling, single point] | 
CCOc1ccc(NC(=O)CSc2nnc(-c3ccccn3)n2N)cc1 | 6.94% |  | 
NC(=O)C1CCN(C(=O)c2ccc(-c3ccccc3Cl)o2)CC1 | 8.58% |  | 
Cc1ccc(NC(=O)CC2NCCNC2=O)cc1 (centres undefined) | 11.5% | 6.51 µM [rising, single point] | 
COC(=O)c1[nH]c2ccc(F)cc2c1NS(=O)(=O)c1ccc(OC)cc1OC |  |  | 0.517 µM [rising, single point]
CC1CC(C)CN(CCOc2ccc(Br)cc2)C1 (centres undefined) | -20.5% | 0.651 µM [falling, full curve] | 0.13 µM [falling, full curve, poor fit]

Record cards, from the list above.
C=CCc1cccc(CNc2cnc3ccccc3c2)c1O in the list: cell number change: -46.4%; AC50 [2]: 20.6 µM [falling, single point]
CCN1CCN(C(=O)CSc2ccc(C)cc2)CC1 in the list: cell number change: -2.47%; AC50 [1]: 29.1 µM [rising, single point]

(next part)

Compound | cell number change | AC50 [1] | AC50 [2]
CCOc1ccc(CCNC(=O)C2CCCN(S(=O)(=O)N3CC(C)CC(C)C3)C2)cc1OCC (centres undefined) | -1.53% | 29.1 µM [rising, single point] | 
O=C(Nc1c(Cl)cccc1Cl)c1cc(=O)n(Cc2ccccc2)c(=O)[nH]1 |  | 0.651 µM [falling, single point] | 
Cc1c(C)n(C)c2ccc(C(=O)NCCCN3CCOCC3)cc12 | 15.3% | 29.1 µM [falling, single point] | 
COc1ccc(CNc2cccc(F)c2)cc1Br | -26.6% | 23.1 µM [falling, single point] | 
O=C(Cc1ccc([N+](=O)[O-])cc1)N1N=C(c2ccncc2)CC1(O)C(F)(F)F (centres undefined) |  |  | 0.461 µM [rising, single point]
CN(C)C(CNC(=O)C1CCN(S(=O)(=O)c2ccccc2C(F)(F)F)CC1)Cc1ccccc1 (centres undefined) | 7.26% | 29.1 µM [rising, single point] | 
Cc1ccc(C)c(C(=O)c2c(C)nc3sccn23)c1 | -21% | 0.00461 µM [falling, full curve, poor fit] | 
CC(=O)c1cccc(OCC(=O)N2CCN(c3ccc(C(F)(F)F)cn3)CC2)c1 | 8.94% |  | 
O=C(COC(=O)Cn1[nH]c(=O)c2ccccc2c1=O)Nc1ncc(Cl)cc1Cl | -6.62% | 6.51 µM [rising, partial curve] | 
COc1ccc(C(C)=O)cc1CSc1nc2ccccc2o1 |  | 0.58 µM [falling, single point] | 
C[C@@H]1O[C@@H](O[C@H]2[C@H](Oc3cc(O)c4c(c3)O[C@H](c3ccc(O)cc3)CC4=O)O[C@H](CO)[C@@H](O)[C@@H]2O)[C@H](O)[C@H](O)[C@H]1O | 91.7% |  | 9.2 µM [rising, partial curve]
Cc1cc(C)c(NC(=O)CC(=O)c2ccccc2)c(Cl)c1 | 47.7% | 29.1 µM [falling, single point] | 29.1 µM [rising, single point]
O=C(/C=C/c1cccc([N+](=O)[O-])c1)NCCSCc1ccc(Cl)cc1Cl | 22% | 3.26 µM [falling, single point] | 3.26 µM [falling, single point]
COc1ccc(NC(=S)N(CCN2CCOCC2)Cc2cc3cc4c(cc3[nH]c2=O)OCO4)cc1 | 96.8% | 0.00461 µM [rising, full curve, poor fit] | 0.13 µM [rising, full curve]
COc1cccc(-c2ccc3ncnc(NCc4cccs4)c3c2)c1 | -13.5% and -16.1% | 5.17 µM [falling, single point] and 18.4 µM [falling, single point] | 4.61 µM [falling, single point]
CCC(CC)c1nnc(NC(=O)COc2ccc3c(c2)OCO3)s1 | 17.1% | 0.146 µM [rising, full curve, poor fit] | 
CCC(C)OC(=O)C1C(c2ccccc2)C(C(=O)O)C1c1ccccc1 (centres undefined) | -49.4% | 4.11 µM [falling, full curve] | 5.17 µM [falling, full curve]
Cc1ccc(-c2nnc(CSc3nnc(COc4cccc5ccccc45)n3-c3ccccc3)o2)cc1 |  | 0.731 µM [rising, single point] | 
Cc1ccnc2nc(C(=O)NC3=NCCS3)nn12 | 3.28% |  | 
COc1ccc2nc(NC(=O)C(NS(=O)(=O)c3cccc4nsnc34)C(C)C)sc2c1 (centres undefined) | 3.88% |  | 
Cc1ccc2nc(N(CCN(C)C)C(=O)C3=COCCO3)sc2c1 | 4.91% | 0.0731 µM [rising, full curve, poor fit] | 0.461 µM [rising, single point]

In the list so far, these contain a thiophene ring, fused or not:
Compound | cell number change | AC50 [1] | AC50 [2]
CS(=O)(=O)Nc1cccc(C2=NN(C(=O)c3ccccc3)C(c3cccs3)C2)c1 (centres undefined) | -18.1% |  | 
COc1cccc(-c2ccc3ncnc(NCc4cccs4)c3c2)c1 | -13.5% and -16.1% | 5.17 µM [falling, single point] and 18.4 µM [falling, single point] | 4.61 µM [falling, single point]

Later entries

Compound | cell number change | AC50 [1] | AC50 [2]
COc1ccc(C(=O)Oc2ccc(/C=N/O)cc2)cc1 | -7.16% | 0.291 µM [falling, full curve] | 
C=CCNc1ncnc2c1ncn2C1OC(CO)C(O)C1O (centres undefined) | 15.7% | 6.51 µM [falling, full curve, poor fit] | 1.46 µM [rising, partial curve, poor fit]
O=C1CSC(=Nc2ccccc2)N1 | 60% |  | 29.1 µM [rising, single point]
COc1cccc(OCC(=O)O)c1 | -86.8% | 18.4 µM [falling, partial curve] | 29.1 µM [falling, partial curve]
COc1ccccc1C(=O)C1CCCN(C(=O)CCn2cnnn2)C1 (centres undefined) | 2.45% | 0.00517 µM [falling, full curve, poor fit] | 
O=C(NCC1CCCO1)C1CCCN1C(=O)NC1CCCCC1 (centres undefined) | 0.291% | 29.1 µM [rising, single point] | 
CCOc1ccccc1N(C(=O)CNS(=O)(=O)c1ccccc1)C(CC)C(=O)NCc1ccco1 (centres undefined) | 3.69% |  | 
Cc1cc(Br)cc(Br)c1OCC(=O)NNC(=O)CCC(=O)NCc1ccccc1 | -8.22% |  | 
O=C(CSc1ccccc1)NCc1cccnc1 | 13.1% | 0.00461 µM [rising, full curve, poor fit] | 
CCCCN1CC(C(=O)NC2CCCCC2)CC1=O (centres undefined) | -6.97% | 29.1 µM [rising, single point] | 
Cc1cc(C)c2nc(C)cc(Nc3ccc(C(=O)N4CCOCC4)cc3)c2c1 | -25.1% | 3.66 µM [falling, full curve, poor fit] | 0.651 µM [falling, full curve, poor fit]
O=C(Nc1ccccn1)NC1CCCCC1 | 19.7% |  | 
COC(=O)c1cc(C(=O)OCC(=O)c2ccc[nH]2)cc([N+](=O)[O-])c1 | 0.839% |  | 
CCOC(=O)CSc1nnc(NCC(=O)OC)c(=O)[nH]1 | 1.78% | 29.1 µM [rising, single point] | 
Cc1ccc(S(=O)(=O)N(Cc2cc3ccc(C)cc3[nH]c2=O)c2ccccc2)cc1 | 8.11% | 0.13 µM [falling, full curve, poor fit] | 
O=C(CCSc1ccc(Cl)cc1)c1cccs1 |  | 0.731 µM [falling, full curve] | 
CCn1c2ccc(OC)cc2c2nc3ccccc3nc21 | -27% |  | 
CCc1c(C)c2ccc(OC(C)C(=O)NC(Cc3c[nH]c4ccc(O)cc34)C(=O)O)c(C)c2oc1=O (centres undefined) | -11.3% | 0.103 µM [falling, full curve, poor fit] | 
CCCCNC(=S)Nc1cc(S(=O)(=O)N2CCCCC2)ccc1C | -1.71% | 0.082 µM [rising, full curve, poor fit] | 
COc1ccc(C(=O)CSc2nnc(-c3ccc(C)cc3)o2)cc1 |  |  | 6.51 µM [falling, single point]
